From article PMC2894861
These are yes or no findings as the source states them, for the method shown. Binding seen in cells or lysates may run through a third protein. Here binding means that the protein was enriched with, or labelled near, the bait; the list need not be complete.

The chains behind the UniProt entries cited, without tags or fusion partners.
UniProt Q8TDY2: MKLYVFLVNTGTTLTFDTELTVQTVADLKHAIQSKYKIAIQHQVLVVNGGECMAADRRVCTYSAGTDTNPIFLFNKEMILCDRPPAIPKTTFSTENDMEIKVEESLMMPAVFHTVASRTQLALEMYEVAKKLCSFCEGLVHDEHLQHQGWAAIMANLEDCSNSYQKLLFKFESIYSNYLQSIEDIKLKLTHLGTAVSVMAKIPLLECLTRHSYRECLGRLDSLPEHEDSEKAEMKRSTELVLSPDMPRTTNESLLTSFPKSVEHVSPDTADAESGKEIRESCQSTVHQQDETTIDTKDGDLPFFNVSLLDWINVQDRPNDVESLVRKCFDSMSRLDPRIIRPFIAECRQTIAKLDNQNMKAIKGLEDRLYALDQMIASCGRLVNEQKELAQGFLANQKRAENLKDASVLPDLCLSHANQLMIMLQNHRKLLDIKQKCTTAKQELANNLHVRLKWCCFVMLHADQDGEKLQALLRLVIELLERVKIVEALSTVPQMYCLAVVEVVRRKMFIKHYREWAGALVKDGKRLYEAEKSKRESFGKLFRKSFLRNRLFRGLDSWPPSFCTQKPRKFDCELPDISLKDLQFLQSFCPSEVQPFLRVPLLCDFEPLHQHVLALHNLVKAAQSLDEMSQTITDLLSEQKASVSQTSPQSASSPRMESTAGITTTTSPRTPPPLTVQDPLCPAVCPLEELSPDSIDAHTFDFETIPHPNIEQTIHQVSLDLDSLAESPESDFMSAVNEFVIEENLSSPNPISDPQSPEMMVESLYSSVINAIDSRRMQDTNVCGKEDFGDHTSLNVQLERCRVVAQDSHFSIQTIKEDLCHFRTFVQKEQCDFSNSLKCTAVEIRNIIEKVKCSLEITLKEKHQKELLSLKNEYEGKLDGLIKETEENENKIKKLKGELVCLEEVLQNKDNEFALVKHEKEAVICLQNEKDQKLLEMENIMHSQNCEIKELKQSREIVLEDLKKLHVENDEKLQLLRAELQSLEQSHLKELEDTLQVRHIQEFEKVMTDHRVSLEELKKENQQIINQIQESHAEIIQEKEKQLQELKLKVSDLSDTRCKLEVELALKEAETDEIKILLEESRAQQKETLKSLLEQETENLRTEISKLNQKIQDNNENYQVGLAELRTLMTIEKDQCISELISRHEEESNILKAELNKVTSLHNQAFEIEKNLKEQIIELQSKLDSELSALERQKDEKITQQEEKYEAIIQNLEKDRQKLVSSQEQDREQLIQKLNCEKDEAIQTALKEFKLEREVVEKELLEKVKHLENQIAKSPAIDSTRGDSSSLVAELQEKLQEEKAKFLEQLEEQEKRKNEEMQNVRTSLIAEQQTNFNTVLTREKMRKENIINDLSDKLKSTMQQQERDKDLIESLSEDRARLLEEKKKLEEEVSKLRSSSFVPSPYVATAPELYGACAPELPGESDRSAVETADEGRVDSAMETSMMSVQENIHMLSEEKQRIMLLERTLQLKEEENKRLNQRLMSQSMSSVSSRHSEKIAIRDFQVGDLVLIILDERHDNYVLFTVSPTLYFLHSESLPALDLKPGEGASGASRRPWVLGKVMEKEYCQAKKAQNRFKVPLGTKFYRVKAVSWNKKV
UniProt Q12824: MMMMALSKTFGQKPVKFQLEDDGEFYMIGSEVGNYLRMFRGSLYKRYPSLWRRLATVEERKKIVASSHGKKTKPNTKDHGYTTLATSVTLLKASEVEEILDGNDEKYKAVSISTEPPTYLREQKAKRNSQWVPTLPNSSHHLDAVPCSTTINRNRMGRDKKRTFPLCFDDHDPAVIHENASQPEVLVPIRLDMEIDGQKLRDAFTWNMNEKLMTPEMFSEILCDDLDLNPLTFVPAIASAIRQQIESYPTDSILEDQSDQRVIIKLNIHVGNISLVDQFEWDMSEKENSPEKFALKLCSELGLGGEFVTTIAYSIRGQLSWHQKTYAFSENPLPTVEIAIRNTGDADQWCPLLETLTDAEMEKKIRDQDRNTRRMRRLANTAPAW

Target: RB1-inducible coiled-coil 1 (RB1CC1), endogenous in MCF-7 cells (human (endogenous in MCF-7)) (UniProt Q8TDY2)
Test: affinity purification with mass spectrometry; MCF-7 lysate in EBC lysis buffer, immunoprecipitated with anti-RB1CC1 purified IgG at 4°C overnight, protein G-agarose, washed with NETN; SDS-PAGE, silver staining, band identified by LC-MS/MS

binding: binds
Substance: hSNF5, endogenous in MCF-7 cells (from UniProt Q12824 1-385)
